# Experimental data: PubChem BioAssay (NCATS)
# Chains of the proteins cited; added tags and fusions are not shown. Lines headed by an entry give the natural chain unless they say otherwise; changes in a name come on top.
# UniProt P09958, whole entry, looked up: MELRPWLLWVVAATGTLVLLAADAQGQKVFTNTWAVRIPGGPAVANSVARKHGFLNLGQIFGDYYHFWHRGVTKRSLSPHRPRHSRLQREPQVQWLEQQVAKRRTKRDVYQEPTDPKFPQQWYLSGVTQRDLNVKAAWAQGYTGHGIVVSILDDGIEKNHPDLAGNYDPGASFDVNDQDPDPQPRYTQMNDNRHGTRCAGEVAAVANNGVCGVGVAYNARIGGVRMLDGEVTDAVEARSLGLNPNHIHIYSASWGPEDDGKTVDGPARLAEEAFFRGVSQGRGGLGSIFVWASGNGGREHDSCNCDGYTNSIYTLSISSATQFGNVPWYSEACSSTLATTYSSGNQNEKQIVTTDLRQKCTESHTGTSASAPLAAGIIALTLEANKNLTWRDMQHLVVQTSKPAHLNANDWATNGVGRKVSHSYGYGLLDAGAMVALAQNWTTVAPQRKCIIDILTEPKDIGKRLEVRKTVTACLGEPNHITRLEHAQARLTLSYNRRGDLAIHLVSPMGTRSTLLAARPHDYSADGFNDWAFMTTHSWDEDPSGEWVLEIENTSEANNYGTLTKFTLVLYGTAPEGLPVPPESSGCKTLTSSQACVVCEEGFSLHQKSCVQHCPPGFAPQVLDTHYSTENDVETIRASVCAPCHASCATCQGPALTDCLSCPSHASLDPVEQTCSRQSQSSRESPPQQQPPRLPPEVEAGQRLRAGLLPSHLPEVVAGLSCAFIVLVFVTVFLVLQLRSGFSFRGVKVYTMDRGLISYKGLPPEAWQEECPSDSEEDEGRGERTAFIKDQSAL
# UniProt Q9BV86: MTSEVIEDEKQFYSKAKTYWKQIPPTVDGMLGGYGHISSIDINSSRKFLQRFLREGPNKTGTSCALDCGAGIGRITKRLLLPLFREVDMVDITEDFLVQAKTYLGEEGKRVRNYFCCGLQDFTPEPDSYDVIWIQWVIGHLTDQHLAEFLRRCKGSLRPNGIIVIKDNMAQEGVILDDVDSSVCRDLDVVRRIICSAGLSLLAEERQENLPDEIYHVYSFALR
# Values joined by “and” are separate entries in the source; they are usually repeats but may differ in a detail not shown here. Equal entries are not always repeated. This list was built around the results that the source calls inconclusive (neither active nor inactive); the mix of calls is not that of the screen. For some of these results: A potency beside an inconclusive call is a rough fit, not a confirmed value. Active and inactive are the calls of the source. The call rests on the fitted dose curve; in most records, active means well fitted curve in the direction sought with a large enough effect; inconclusive means small, poorly fitted or top-dose-only effect, or another doubt; inactive means no such curve, though single readings can be large; an effect the other way counts as inactive or inconclusive.
# Tests used:
# [1] = qHTS of pediatric cancer cell lines to identify multiple opportunities for drug repurposing: Confirmatory screen for Rh18 cells (AID 1347125); conditions: Rh18 rhabdomyosarcoma cells, viability; series mostly up to 45.9 µM; further: nearly all actives have a fitted effect of over 55% in size
# Summary of the method: (§1)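 Viability after 48 h compound treatment at 37C, 500-1,000 cells/well, read as ATP luminescence with CellTiter-Glo. Primary screens used 11-point (MIPE, 0.78 nM-46 µM) or 8-point (NPC, 0.59 nM-46 µM) final concentrations; follow-up screens used 11-point dilutions.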
# [2] = qHTS of pediatric cancer cell lines to identify multiple opportunities for drug repurposing: Confirmatory screen for Rh30 cells (AID 1347126); further: nearly all actives have a fitted effect of over 55% in size; further: potency means the concentration at half of the fitted maximal effect
# Summary of the method: as §1
# [3] = qHTS of pediatric cancer cell lines to identify multiple opportunities for drug repurposing: Confirmatory screen for Saos-2 cells (AID 1347127); further: nearly all actives have a fitted effect of over 60% in size; further: potency means the concentration at half of the fitted maximal effect
# Summary of the method: as §1
# [4] = qHTS of pediatric cancer cell lines to identify multiple opportunities for drug repurposing: Confirmatory screen for OHS-50 cells (AID 1347128);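 further: compound exposure lasted 48 h at 37 degrees C; nearly all actives have a fitted effect of over 55% in size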; further: potency means the concentration at half of the fitted maximal effect
# Summary of the method: as §1
# Furin (Homo sapiens) = Furin (Homo sapiens) (UniProt P09958); assay: Furin counterscreen qHTS for Zika virus inhibitors (AID 1347149); further: potency means the concentration at half of the fitted maximal effect; nearly all actives have a fitted effect of over 70% in size
# Summary of the method: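 Fluorogenic cleavage of BOC-RVRR-AMC (2 microM final, Km ~15 µM) was monitored (ex 340, em 450 nm) at 37C after 15 min RT preincubation of 5 nM furin with compounds in HEPES pH 7.0 buffer with CaCl2 and Triton X-100. Percent inhibition was fitted to a 4-parameter Hill curve.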
# [5] = molecular target: N-terminal Xaa-Pro-Lys N-methyltransferase 1 (Homo sapiens) (UniProt Q9BV86); assay: qHTS Assay for Inhibitors of N-terminal methyltransferase 1 (NTMT1): LOPAC validation of the NTMT1 SAHH-coupled ThioGlo3 Assay (AID 1347143);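 further: SAH from peptide methylation measured as thiol fluorescence via SAHH coupling and ThioGlo3; nearly all actives have a fitted effect of over 70% in size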; further: potency means the concentration at half of the fitted maximal effect
# Summary of the method: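 Recombinant human NTMT1 (125nM) was pre-incubated 1 min at room temperature with compounds over a concentration range, then a mix of 100uM SAM, 10uM SAHH and 15uM ThioGlo3 (concentrations in added reagent) was added. ThioGlo3 fluorescence (ex 340/em 450nm) after 30 min was normalized to the initial reading.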
# [6] = qHTS of pediatric cancer cell lines to identify multiple opportunities for drug repurposing: Confirmatory screen for RD cells (AID 1347124);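 further: potency means the concentration at half of the fitted maximal effect; cells exposed to compound for 48 h before viability readout; nearly all actives have a fitted effect of over 65% in size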
# Summary of the method: as §1
smiles,measurement,setting,value
C=C(c1ccc(C(=O)O)cc1)c1cc2c(cc1C)C(C)(C)CCC2(C)C,Potency,[1],inactive
same,Potency,[2],inconclusive: 0.001 µM
same,Potency,[3],"inconclusive: 0.585 µM [cytotoxic, full curve, poor fit]"
same,Potency,[4],inactive
same,Potency,Furin (Homo sapiens),"inconclusive: 1.9 nM [inhibitor, full curve, poor fit]"
NC(=O)c1ccccc1,Potency,[5],inactive
CC1=C[C@@H]2[C@@H]([C@@H](O)C[C@@]3(C)[C@H]2C[C@@H](C)[C@]3(O)C(=O)CO)[C@@]2(C)Cc3cnn(-c4ccccc4)c3C=C12,Potency,[6],"inconclusive: 36.9 µM [cytotoxic, single point]"
same,Potency,[4],"inconclusive: 29.3 µM [cytotoxic, single point]"
COc1ccc2cc([C@H](C)C(=O)O)ccc2c1,Potency,[5],"inconclusive: 56.2 µM [inhibitor, partial curve]"
O=C(C=CC=Cc1ccc2c(c1)OCO2)N1CCCCC1,Potency,[2],"inconclusive: 5.22 µM [rising, partial curve, poor fit]"
same,Potency,[3],inactive
same,Potency,[4],inactive
CC1(C)OC2=C(C(=O)c3ccccc3C2=O)[C@H](NCc2ccccc2)[C@H]1O,Potency,[2],"inconclusive: 7.37 µM [cytotoxic, full curve, poor fit]"
same,Potency,[3],active: 8.27 µM
Oc1ccc(C2CCN(c3ccnc4ccccc34)CC2)cc1O,Potency,[2],"inconclusive: 0.737 µM [cytotoxic, full curve, poor fit]"
same,Potency,[3],inactive
same,Potency,[4],"inconclusive: 23.3 µM [cytotoxic, single point]"
Cc1ccc(NC(=O)c2ccc(CN3CCN(C)CC3)cc2)cc1Nc1nccc(-c2cccnc2)n1,Potency,[3],inactive
same,Potency,[4],"inconclusive: 36.9 µM [cytotoxic, partial curve, poor fit]"
O=C1C(Cl)=C(NCCN2CCOCC2)C(=O)c2ncccc21,Potency,[2],active: 7.37 µM
same,Potency,[3],active: 1.17 µM
same,Potency,[4],"inconclusive: 1.17 µM [cytotoxic, full curve, poor fit]"
Nc1ccccc1NC(=O)c1ccc(CNC(=O)OCc2cccnc2)cc1,Potency,[6],active: 13.5 µM
same,Potency,[4],active: 10.7 µM
O=S(=O)(O)CCSSCCS(=O)(=O)O,Potency,[2],inactive
CCc1cccc(N(C)C(N)=Nc2cccc3ccccc23)c1,Potency,[5],"inconclusive: 39.8 µM [inhibitor, partial curve, poor fit]"
N.N.N.N.N.N.N.N.N.N.N.N.N.N.O.O.[Cl-].[Cl-].[Cl-].[Cl-].[Cl-].[Cl-].[Ru+4].[Ru+5].[Ru+5],Potency,[5],active: 44.7 µM
CO[C@H]1C=CC=C(C)C(=O)NC2=CC(=O)C(NCCN(C)C)=C(C[C@@H](C)C[C@H](OC)[C@@H](O)[C@@H](C)C=C(C)[C@@H]1OC(N)=O)C2=O,Potency,[2],active: 3.29 µM
same,Potency,[3],inactive
same,Potency,[4],inactive
O=C1c2ccccc2-[n+]2ccc3c([nH]c4ccccc43)c21,Potency,[2],active: 2.93 µM
C=CC(=O)Nc1cc2c(Nc3ccc(F)c(Cl)c3)ncnc2cc1C#CC(C)(C)N1CCN(C)CC1,Potency,[4],active: 6.03 µM
CC[C@]1(O)C[C@H]2CN(CCc3c([nH]c4ccccc34)[C@@](C(=O)OC)(c3cc4c(cc3OC)N(C=O)[C@H]3[C@@](O)(C(=O)OC)[C@H](OC(C)=O)[C@]5(CC)C=CCN6CC[C@]43[C@@H]65)C2)C1,Potency,[6],active: 52.2 nM and active: 147 nM
same,Potency,[4],"inconclusive: 13.1 nM [cytotoxic, full curve] and inconclusive: 104 nM [cytotoxic, full curve]"
O=C(c1ccc(OCCCc2cnc[nH]2)cc1)C1CC1,Potency,[5],"inconclusive: 56.2 µM [inhibitor, partial curve]"
CNCc1ccc(-c2[nH]c3cc(F)cc4c3c2CCNC4=O)cc1,Potency,[2],inactive
same,Potency,[3],inactive
same,Potency,[4],inactive
O=C(NCC1CCCCN1)c1cc(OCC(F)(F)F)ccc1OCC(F)(F)F (stereo not given),Potency,[2],"inconclusive: 32.9 µM [cytotoxic, single point]"
same,Potency,[4],"inconclusive: 14.7 µM [cytotoxic, partial curve, poor fit]"

# Reformatted: results already given.
smiles	measurement	setting	value
C=C(c1ccc(C(=O)O)cc1)c1cc2c(cc1C)C(C)(C)CCC2(C)C	Potency	[4]	inactive
CO[C@H]1C=CC=C(C)C(=O)NC2=CC(=O)C(NCCN(C)C)=C(C[C@@H](C)C[C@H](OC)[C@@H](O)[C@@H](C)C=C(C)[C@@H]1OC(N)=O)C2=O	Potency	[3]	inactive
